Laboratory results taken from PMC11724473.
No constants are given. Whether binding was seen depends on the method and setting. For part of these data: In cells and extracts the contact can be indirect. Some binding calls cover weakened binding; strength is not graded here. For part of these data: Where a sequence is shown, tags or fusion partners need not be part of it.

Assays:
[1] = biological target: ADAR2 (FLAG-ADAR2 and HA-ADAR2 co-expressed in 293 T cells) (UniProt P78563); assay: co-IP; two-step: 293 T cells with FLAG-ADAR2, HA-ADAR2 and SNORD113-3; precipitated with anti-FLAG antibody, eluted with FLAG peptide, then precipitated with anti-HA antibody
[2] = biological target: ADAR2 (FLAG-ADAR2 and HA-ADAR2 co-expressed in 293 T cells) (UniProt P78563); assay: co-IP; 293 T cells overexpressing FLAG-ADAR2 and HA-ADAR2, without or with overexpressed SNORD113-3; immunoprecipitation of HA-ADAR2
[3] = biological target: ADAR2 (FLAG-ADAR2 and HA-ADAR2 in U251 cells) (UniProt P78563); assay: co-IP; U251 cells, HA-ADAR2 coupled to FLAG-ADAR2, without or with SNORD113-3 overexpression
[4] = biological target: T1, EBF transcription factor 1 (EBF1), endogenous (human (endogenous in U251)) (UniProt Q9UH73); assay: co-IP; lysates of U251 cells, endogenous proteins; IP and IB with PHKA2 and EBF1 antibodies
T1 sequence: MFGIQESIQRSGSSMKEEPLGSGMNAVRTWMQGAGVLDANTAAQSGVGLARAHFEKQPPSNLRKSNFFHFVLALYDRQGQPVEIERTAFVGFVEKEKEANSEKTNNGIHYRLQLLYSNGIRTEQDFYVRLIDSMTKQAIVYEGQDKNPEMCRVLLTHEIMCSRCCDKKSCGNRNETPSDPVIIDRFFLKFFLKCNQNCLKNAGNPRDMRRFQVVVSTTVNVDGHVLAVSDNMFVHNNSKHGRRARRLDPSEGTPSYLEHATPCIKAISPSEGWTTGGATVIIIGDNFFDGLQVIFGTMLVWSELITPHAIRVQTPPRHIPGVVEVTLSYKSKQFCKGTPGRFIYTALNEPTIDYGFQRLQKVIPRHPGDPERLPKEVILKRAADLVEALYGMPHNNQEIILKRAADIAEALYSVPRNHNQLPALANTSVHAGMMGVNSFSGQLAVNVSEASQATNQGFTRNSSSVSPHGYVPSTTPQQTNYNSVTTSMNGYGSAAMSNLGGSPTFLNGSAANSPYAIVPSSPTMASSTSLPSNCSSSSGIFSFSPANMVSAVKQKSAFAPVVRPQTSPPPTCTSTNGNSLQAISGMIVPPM

[5] = biological target: T2, GST-EBF1 (in 293 T cells) (UniProt Q9UH73); assay: co-IP; lysates of 293 T cells transfected with FLAG-PHKA2 and GST-EBF1 plasmids; IP and IB with FLAG tag and GST tag antibodies
T2 sequence: T1 sequence

[6] = biological target: T3, GST-EBF1, purified (UniProt Q9UH73); assay: pull-down; GST pull-down: purified FLAG-PHKA2 incubated overnight at 4 °C with purified GST-EBF1 bound to resin; eluate analysed by SDS-PAGE and western blot; both purified
T3 sequence: T1 sequence

In the case of “ADAR2 (FLAG-ADAR2 and HA-ADAR2 co-expressed in 293 T cells) (from UniProt P78563 1-741) (enzyme)”, the binding [1] is reported as “binds” and the binding [2] is reported as “binds”.

With “ADAR2 (FLAG-ADAR2 and HA-ADAR2 in U251 cells) (from UniProt P78563 1-741) (enzyme)” the binding [3] was “binds”.

B1: Phosphorylase kinase regulatory subunit alpha 2 (PHKA2), endogenous (protein, UniProt P46019 1-1235)
chain: MRSRSNSGVRLDGYARLVQQTILCYQNPVTGLLSASHEQKDAWVRDNIYSILAVWGLGMAYRKNADRDEDKAKAYELEQNVVKLMRGLLQCMMRQVAKVEKFKHTQSTKDSLHAKYNTATCGTVVGDDQWGHLQVDATSLFLLFLAQMTASGLRIIFTLDEVAFIQNLVFYIEAAYKVADYGMWERGDKTNQGIPELNASSVGMAKAALEAIDELDLFGAHGGRKSVIHVLPDEVEHCQSILFSMLPRASTSKEIDAGLLSIISFPAFAVEDVNLVNVTKNEIISKLQGRYGCCRFLRDGYKTPREDPNRLHYDPAELKLFENIECEWPVFWTYFIIDGVFSGDAVQVQEYREALEGILIRGKNGIRLVPELYAVPPNKVDEEYKNPHTVDRVPMGKVPHLWGQSLYILSSLLAEGFLAAGEIDPLNRRFSTSVKPDVVVQVTVLAENNHIKDLLRKHGVNVQSIADIHPIQVQPGRILSHIYAKLGRNKNMNLSGRPYRHIGVLGTSKLYVIRNQIFTFTPQFTDQHHFYLALDNEMIVEMLRIELAYLCTCWRMTGRPTLTFPISRTMLTNDGSDIHSAVLSTIRKLEDGYFGGARVKLGNLSEFLTTSFYTYLTFLDPDCDEKLFDNASEGTFSPDSDSDLVGYLEDTCNQESQDELDHYINHLLQSTSLRSYLPPLCKNTEDRHVFSAIHSTRDILSVMAKAKGLEVPFVPMTLPTKVLSAHRKSLNLVDSPQPLLEKVPESDFQWPRDDHGDVDCEKLVEQLKDCSNLQDQADILYILYVIKGPSWDTNLSGQHGVTVQNLLGELYGKAGLNQEWGLIRYISGLLRKKVEVLAEACTDLLSHQKQLTVGLPPEPREKIISAPLPPEELTKLIYEASGQDISIAVLTQEIVVYLAMYVRAQPSLFVEMLRLRIGLIIQVMATELARSLNCSGEEASESLMNLSPFDMKNLLHHILSGKEFGVERSVRPIHSSTSSPTISIHEVGHTGVTKTERSGINRLRSEMKQMTRRFSADEQFFSVGQAASSSAHSSKSARSSTPSSPTGTSSSDSGGHHIGWGERQGQWLRRRRLDGAINRVPVGFYQRVWKILQKCHGLSIDGYVLPSSTTREMTPHEIKFAVHVESVLNRVPQPEYRQLLVEAIMVLTLLSDTEMTSIGGIIHVDQIVQMASQLFLQDQVSIGAMDTLEKDQATGICHFFYDSAPSGAYGTMTYLTRAVASYLQELLPNSGCQMQ
In the case of B1, the binding [4] is reported as “binds”.

B2: FLAG-PHKA2 (in 293 T cells) (protein, UniProt P46019 1-1235)
chain: B1 chain
For B2, the binding [5] was “binds”.

B3: FLAG-PHKA2, purified (protein, UniProt P46019 1-1235)
chain: B1 chain
With B3 the binding [6] was “binds”.
